# Laboratory results from PubChem BioAssay AID1347075 (National Center for Advancing Translational Sciences (NCATS), 2019).
# In all, about 400,000 compounds went through this assay and about 5,500 (1.4%) were called active. The inconclusive results got no clear call from the source; some entries with a clear call stand among them for comparison. The call rests on the fitted dose curve; in most records, active means well fitted cell-killing curve with a large enough effect; inconclusive means small, poorly fitted or top-dose-only effect, or effect the other way; inactive means flat fitted curve, though single readings scatter. Where the call is inconclusive, the potency comes from a doubtful curve fit.
# Assay: qHTS assay for MDR1-selective chemotherapeutics: Primary screen using the parental adenocarcinoma cell KB-3-1; further: nearly all actives have a fitted effect of over 60% in size
# Details: KB-3-1 viability, CellTiter-Glo ATP luminescence, 72 h; activity change, negative = cytotoxic: at 46.1 µM (top of the series)
# How it was run: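 Screening of KB-3-1 cells (DMEM, 10% FBS, phenol-red free) ran from lowest to highest compound concentration; after 72 h at 37 °C viability was read luminescently and curves fitted.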
# On the % scale 0 is the no-effect control and ±100 the full control effect; potency means the concentration at half of the fitted maximal effect.
SMILES,Potency,"activity change, negative = cytotoxic"
N#CNC(=Nc1cccc(F)c1)SCc1cccc(F)c1,"inconclusive: 29.1 µM [cytotoxic, single point]",
C=C1SC(=Nc2ccccc2Cl)N(C(=O)c2sc3ccccc3c2Cl)C1(C)C,"inconclusive: 29.1 µM [cytotoxic, single point]",
CC1Sc2ccc(S(=O)(=O)CCC(=O)N3CCN(c4cccc(Cl)c4)CC3)cc2NC1=O (stereo unspecified),"inconclusive: 32.6 µM [cytotoxic, single point]",
CCOc1ccc(C=Nc2ccc(/C=C/c3ccnc4ccccc34)cc2)cc1OCC,inactive,
O=C(NC(=S)Nc1ccc(S(=O)(=O)Nc2nccs2)cc1)c1ccc(Br)o1,inactive,
CC(C)(C)C1CCC(OC(=O)CN2CCOCC2)CC1 (stereo unspecified),inactive,
Cc1ccc(S(=O)(=O)N2CCN(c3ccccc3)CC2)cc1C(=O)NC1CCCCC1,"inconclusive: 29.1 µM [cytotoxic, single point]",
CCCC[C@@H](CN[C@H](C)CNC)NCC1CCC(C(C)(C)C)CC1 (stereo partly specified),"inconclusive: 18.4 µM [cytotoxic, single point]",
COC(=O)c1c(C)[nH]c(-c2csc(N)n2)c1C,"inconclusive: 25.9 µM [cytotoxic, single point]",
CCSc1nnc(NC(=O)c2ccccc2C)s1,inactive,
CCN1CCCC1CNC(=O)C(=O)NC (stereo unspecified),inactive,
COC(=O)/C(=C1/Oc2cc(C)oc(=O)c2S1)C(F)(F)F,inactive,
O=C(Nc1ccc2c(c1)N(C1CCCC1)C(=O)c1ccccc1S2)c1ccc(F)cc1,"inconclusive: 5.8 µM [cytotoxic, full curve]",
O=C(COc1ccc(-c2ccccc2)cc1)N1CCN(S(=O)(=O)Cc2ccccc2)CC1,active: 3.66 µM,
c1cc2c3c(c1)CCC[N+]3(C1CCCCC1)CCC2,"inconclusive: 29.1 µM [cytotoxic, single point]",
CCN(CC)c1ccc(NC(=O)C2COc3ccc(OC)cc3C2)c(C)c1 (stereo unspecified),"inconclusive: 2.91 µM [cytotoxic, partial curve, poor fit]",
Cc1ccc(C)c(OCC(O)CN2CCC(Cc3ccccc3)CC2)c1 (stereo unspecified),"inconclusive: 29.1 µM [cytotoxic, partial curve, poor fit]",
CCCOc1ccc(OCCNC2CCCC2)cc1,inactive,
Cn1c(SCc2ccc(C(C)(C)C)cc2)nnc1C1COc2ccccc2O1 (stereo unspecified),"inconclusive: 23.1 µM [cytotoxic, single point]",
C(=NNc1nnn(Cc2ccccc2)n1)c1ccccc1,"inconclusive: 29.1 µM [cytotoxic, single point]",
CC(=O)N1CCc2cc(S(=O)(=O)CCC(=O)NCCc3ccc(Cl)cc3)ccc21,"inconclusive: 18.4 µM [cytotoxic, partial curve, poor fit]",
COc1ccccc1OCCCN1C(=O)C(=O)c2cccc(C)c21,"inconclusive: 25.9 µM [cytotoxic, single point]",
CCOC(=O)CNC(=O)c1sc(NC(=O)c2ccccc2)nc1C,"inconclusive: 20.6 µM [cytotoxic, single point]",

# Single records, from the list above.
# CCN1CCCC1CNC(=O)C(=O)NC (stereo unspecified) in the list: Potency: inactive
# O=C(Nc1ccc2c(c1)N(C1CCCC1)C(=O)c1ccccc1S2)c1ccc(F)cc1 in the list: Potency: inconclusive: 5.8 µM [cytotoxic, full curve]

# (list continues)

SMILES,Potency,"activity change, negative = cytotoxic"
Nc1c(C(=O)Nc2ccc(Br)cc2)sc2nc(-c3ccco3)ccc12,inactive,
COc1ccc(CCNC(=O)c2cc(-c3ccccn3)nc3c(Cl)cccc23)cc1OC,"inconclusive: 32.6 µM [cytotoxic, single point]",
CCCCN1CC(COCc2ccccc2)Oc2cccc(Oc3ccccc3)c2S1(=O)=O (stereo unspecified),"inconclusive: 29.1 µM [cytotoxic, single point]",
COc1cccc(/C=N/NC(=O)CSCC(=O)Nc2ccccc2)c1O,"inconclusive: 35.5 µM [cytotoxic, single point]",
O=S1(=O)CC(N2CCN(c3ccccn3)CC2)CN1C1CCCCC1 (stereo unspecified),inactive,
NC(=O)CC(NC(=O)c1ccccc1)c1ccc(NCCc2ccc(F)cc2)c([N+](=O)[O-])c1 (stereo unspecified),inactive,
Cn1c(-c2ccc(F)cc2)cnc1NCc1ccccc1F,inactive,
COc1cccc(-c2nc(CS(=O)(=O)CC(=O)NCCCN3CC(C)CC(C)C3)c(C)o2)c1 (stereo unspecified),"inconclusive: 29.1 µM [cytotoxic, single point]",
Cc1cccc(NC(=S)NCCc2ccccn2)c1,inactive,
Cc1ccc(-c2csc(NC(=O)CN3CC(C)OC(C)C3)n2)cc1 (stereo unspecified),active: 23.1 µM,
O=C(CCSc1ccc(Cl)cc1)N1CCN(c2ccc(O)cc2)CC1,"inconclusive: 29.1 µM [cytotoxic, single point]",
O=C1NC[C@@H](c2ccccc2)OC(=O)[C@@H](Cc2ccc(F)cc2)C/C=C\C[C@@H]1CC(=O)N(CCO)Cc1ccccc1,"inconclusive: 29.1 µM [cytotoxic, single point]",
O=C(O)c1cccc(N2C(=O)c3ccc(C(=O)c4cccc([N+](=O)[O-])c4)cc3C2=O)c1,inactive,
COc1ccc(-c2nc(-c3ccccn3)nc(N3CCN(C)CC3)c2C#N)cc1,,inconclusive: 2.13%
Cc1ccc(C)c(Cn2c(CN(C)Cc3ccccc3)nc3c2c(=O)n(C)c(=O)n3C)c1,"inconclusive: 29.1 µM [cytotoxic, single point]",
COc1ccc(CNCC(=O)Nc2cc(C)nn2-c2nc(C)cc(C)n2)cc1OC,"inconclusive: 13 µM [cytotoxic, partial curve, poor fit]",
CN(CC(=O)Nc1c(Cl)cccc1Cl)C(=O)c1ccc2ccccc2n1,inactive,
CNc1ccc(/C=C2\C=Cc3ccccc32)cc1OC,,inconclusive: -0.751%
CCN1CCN(C(CNS(=O)(=O)c2ccc(C)cc2)c2ccccc2)CC1 (stereo unspecified),,inconclusive: -34.5%
CCOc1ccc(CNC(=O)C2CCN(c3nnc(C)c4c(C)n(-c5ccc(C)cc5)nc34)CC2)cc1,"inconclusive: 29.1 µM [cytotoxic, single point]",
Nc1cc(N2CCCC2)c(Cl)cc1[N+](=O)[O-],"inconclusive: 23.1 µM [cytotoxic, single point]",
CCCN(CC(=O)Nc1ccccc1OC)C(=O)Cn1[nH]c(=O)c2ccccc2c1=O,inactive,
COc1ccc(NC(=O)CNC(=O)Cn2cnc3sc4c(c3c2=O)CCCC4)cc1OC,"inconclusive: 18.4 µM [rising, single point]",
